Results from article doi:10.1101/2022.06.15.496240.
These are yes or no findings as the source states them, for the method shown. Binding seen in cells or lysates may run through a third protein. Some binding calls cover weakened binding; strength is not graded here. Tags and fused reporters may be left off the sequences shown.

Target: T1, ASNA-1::GFP (C. elegans) (UniProt P30632)
T1 sequence: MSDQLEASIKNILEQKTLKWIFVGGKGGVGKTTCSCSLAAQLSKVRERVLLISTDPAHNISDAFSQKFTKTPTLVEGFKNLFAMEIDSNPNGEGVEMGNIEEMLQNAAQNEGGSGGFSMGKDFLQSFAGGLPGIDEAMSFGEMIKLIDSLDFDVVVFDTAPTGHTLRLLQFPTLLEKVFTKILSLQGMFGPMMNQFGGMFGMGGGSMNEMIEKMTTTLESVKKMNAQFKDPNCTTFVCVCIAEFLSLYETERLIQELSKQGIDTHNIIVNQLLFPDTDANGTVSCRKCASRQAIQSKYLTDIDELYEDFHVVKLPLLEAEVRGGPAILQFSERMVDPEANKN
Test: co-IP

binding: binds
B1: 3xFlag::ENPL-1 (protein, UniProt Q22235 24-760)
chain: EDEIEDAPKETKEETREEDSIKLDGLSVSQIKELRSKAEKHEFQAEVNRMMKLIINSLYRNKEIFLRELISNASDALDKIRLLSLTDPEQLRETEEMSVKIKADRENRLLHITDTGVGMTRQDLINNLGTIARSGTSEFLSKLMDTATSSDQQQDLIGQFGVGFYAAFLVADRVVVTTKNNDDDQYIWESDSASFTISKDPRGNTLKRGTQITLYLKEEAADFLEPDTLKNLVHKYSQFINFDIFLWQSKTEMVEEAVEEEPATTEDGAVEEEKEEKKTKKVEKTTWDWEKVNNVKPIWMRKPNQVEEDEYKQFYKSITKDSEEPLSHVHFSAEGEVSFRSILYVPKKSPNDMFQNYGKVIENIKLYVRRVFITDDFADMLPKYLSFIRGIVDSDDLPLNVSRENLQQHKLLKVIKKKLVRKVLDMLKKLDGAQFDDFWSEFSTNIKLGVMEDPSNRMRLAKLLRFQSSNDADKTTTLAAYVERMKEKQDAIYYMAGTSRKEVETSPFVERLIAKGYEVLFLTEAVDEYCIQAMPEYESKKFQNVAKEGVTIDDGEKAKEAHKGLEEEFKPLTDWLKETALKDLIEKAVVSQRLVKSPSALVASSYGWSGNMERIMKSQAYAKAKDPTQDFYATQKKTFEINPRHPVIKELLKRVTASEEDTTAASTAKLLFETATLRSGFSLQDQVGFADRIEAVLRQSLDVSQDAQVETEQHIEEAEPEPEAAEETTIEEEHSEL
